Reference: patent publication US20240382475A1, “Quinazoline Derivative, Or Preparation Method Therefor And Use Thereof” (Zhejiang Hisun Pharmaceutical Co., Ltd., priority 2021, published 2024)

Assay: Pharmacokinetic evaluation in beagle dogs
Conditions: male, dog, in vivo, Oral 2 mg/kg, read-out: Plasma concentration Cmax
Description: Beagle, male, 13 to 14 months old, purchased from Beijing Mas Biotechnology Co., Ltd.
Intravenous injection group: an appropriate amount of the compound to be tested was weighed, and an appropriate amount of DMA:30% Solutol HS-15:Saline=5:5:90 (v/v/v) was added, vortexed, and a solution with a final concentration of 0.5 mg/mL was prepared.
Intragastric administration group: an appropriate amount of the compound to be tested was weighed, and an appropriate amount of DMA:30% Solutol HS-15:Saline=5:5:90 (v/v/v) was added, vortexed, and a solution with a final concentration of 1 mg/mL was prepared.
The beagle dogs were divided into intravenous injection group (3 dogs/group) and intragastric administration group (3 dogs/group) according to the compound to be tested.
Intravenous injection group: dogs were fasted overnight and then administered by intravenous injection (administration dosage was 0.5 mg/kg, and administration volume was 1 mL/kg), and ate 4 hours after administration. […]
Intravenous injection group: about 0.5 mL of blood was collected through jugular vein into EDTA-K2 anticoagulant tubes at 0.083 hour, 0.25 hour, 0.5 hour, 1 hour, 2 hours, 4 hours, 8 hours and 24 hours after administration. […] The collected plasma sample was stored at −40˜−20° C. before analysis. […]

Cmax: 180 ± 63.3 ng/mL
SMILES: COc1cc2nc(C)nc(N[C@H](C)c3cc(N)cc(C(F)(F)F)c3)c2cc1O[C@H]1CCOC1 [BI-3406, reference compound]
